Values from PubChem BioAssay AID652243 (Drosophila RNAi Screening Center, 2013).
Aim: 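Knock-downs that decrease or increase androgen receptor reporter signal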 (primary screen). Cell system: Drosophila S2R+ cells. Reagents: long dsRNA against Drosophila genes. Timing: 72 h (48 h, then 24 h hormone). Conditions: synthetic androgen R1881 at 10 nM for 24 h. Measurement: 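Per-well raw luminescence of the androgen-driven firefly reporter and of the Renilla control, two replicates each, without normalisation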. Scale: firefly reporter light: higher = more light from androgen-responsive reporter; Renilla control light: higher = more constitutive control signal (cell number, transfection). Call rule: 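Hit when the log firefly-to-Renilla ratio dropped or increased by a fixed fold versus the mean of GFP or LacZ controls across duplicate plates; lowering cut given as 1.5 and as 3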. Meaning of the calls: active = hit: reporter lowered or raised; inactive = no hit.
The screen tested about 24,000 reagents; below is a random part of those with a known target gene and a result. Over the whole deposit, 246 (1%) got an active call. 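Plates not normalised; calls are printed but the firefly/Renilla ratio behind them is not deposited; fold cut for lowering reported inconsistently.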 Raw values vary from plate to plate and are shown uncorrected. Not stated in the record: the amount of reagent.

What did the screen give for CG8630 (GeneID 41629) [DRSC16441]?
firefly reporter light, replicate 1: 39316; firefly reporter light, replicate 2: 58578; Renilla control light, replicate 1: 1.37e6; Renilla control light, replicate 2: 1.56e6; outcome: active

What did the screen give for CG8630 (GeneID 41629) [DRSC24081]?
firefly reporter light, replicate 1: 5.69e5; firefly reporter light, replicate 2: 7.95e5; Renilla control light, replicate 1: 1.27e6; Renilla control light, replicate 2: 1.18e6; outcome: inactive

What did the screen give for Rdl (GeneID 39054) [DRSC11264]?
firefly reporter light, replicate 1: 1.06e6; firefly reporter light, replicate 2: 5.91e5; Renilla control light, replicate 1: 1.68e6; Renilla control light, replicate 2: 9.78e5; outcome: inactive

With Rdl (GeneID 39054) [DRSC27696], how do the results read?
firefly reporter light, replicate 1: 1.32e5; firefly reporter light, replicate 2: 1.21e5; Renilla control light, replicate 1: 4.50e5; Renilla control light, replicate 2: 5.32e5; outcome: inactive

For mip40 (GeneID 37215) [DRSC06541], what was measured?
firefly reporter light, replicate 1: 2.51e5; firefly reporter light, replicate 2: 6.52e5; Renilla control light, replicate 1: 4.66e5; Renilla control light, replicate 2: 8.89e5; outcome: inactive

Which result is listed for CG8155 (GeneID 36698) [DRSC07084]?
firefly reporter light, replicate 1: 7.19e5; firefly reporter light, replicate 2: 8.60e5; Renilla control light, replicate 1: 1.32e6; Renilla control light, replicate 2: 1.09e6; outcome: inactive

What is on record for CG8155 (GeneID 36698) [DRSC21543]?
firefly reporter light, replicate 1: 9.79e5; firefly reporter light, replicate 2: 9.71e5; Renilla control light, replicate 1: 2.34e6; Renilla control light, replicate 2: 2.23e6; outcome: inactive

With CG8155 (GeneID 36698) [DRSC28386], how do the results read?
firefly reporter light, replicate 1: 5.48e5; firefly reporter light, replicate 2: 5.96e5; Renilla control light, replicate 1: 9.19e5; Renilla control light, replicate 2: 1.47e6; outcome: inactive

What did the screen give for CG5446 (GeneID 34655) [DRSC02862]?
firefly reporter light, replicate 1: 2.45e5; firefly reporter light, replicate 2: 3.43e5; Renilla control light, replicate 1: 1.34e6; Renilla control light, replicate 2: 1.27e6; outcome: inactive

With pippin (GeneID 37770) [DRSC04489], how do the results read?
firefly reporter light, replicate 1: 6.44e5; firefly reporter light, replicate 2: 6.28e5; Renilla control light, replicate 1: 1.59e6; Renilla control light, replicate 2: 1.34e6; outcome: inactive

Targets listed so far whose gene name begins with C or c:
CG8630 (GeneID 41629) [DRSC16441] | firefly reporter light, replicate 1 = 39316; firefly reporter light, replicate 2 = 58578; Renilla control light, replicate 1 = 1.37e6; Renilla control light, replicate 2 = 1.56e6; outcome = active
CG8630 (GeneID 41629) [DRSC24081] | firefly reporter light, replicate 1 = 5.69e5; firefly reporter light, replicate 2 = 7.95e5; Renilla control light, replicate 1 = 1.27e6; Renilla control light, replicate 2 = 1.18e6; outcome = inactive
CG8155 (GeneID 36698) [DRSC07084] | firefly reporter light, replicate 1 = 7.19e5; firefly reporter light, replicate 2 = 8.60e5; Renilla control light, replicate 1 = 1.32e6; Renilla control light, replicate 2 = 1.09e6; outcome = inactive
CG8155 (GeneID 36698) [DRSC21543] | firefly reporter light, replicate 1 = 9.79e5; firefly reporter light, replicate 2 = 9.71e5; Renilla control light, replicate 1 = 2.34e6; Renilla control light, replicate 2 = 2.23e6; outcome = inactive
CG8155 (GeneID 36698) [DRSC28386] | firefly reporter light, replicate 1 = 5.48e5; firefly reporter light, replicate 2 = 5.96e5; Renilla control light, replicate 1 = 9.19e5; Renilla control light, replicate 2 = 1.47e6; outcome = inactive
CG5446 (GeneID 34655) [DRSC02862] | firefly reporter light, replicate 1 = 2.45e5; firefly reporter light, replicate 2 = 3.43e5; Renilla control light, replicate 1 = 1.34e6; Renilla control light, replicate 2 = 1.27e6; outcome = inactive

The listing continues:
Which result is listed for CG3513 (GeneID 33590) [DRSC00608]?
firefly reporter light, replicate 1: 1.81e5; firefly reporter light, replicate 2: 80625; Renilla control light, replicate 1: 1.08e6; Renilla control light, replicate 2: 1.10e6; outcome: inactive

With CG10505 (GeneID 37428) [DRSC04075], what was measured?
firefly reporter light, replicate 1: 2.48e5; firefly reporter light, replicate 2: 3.51e5; Renilla control light, replicate 1: 2.23e6; Renilla control light, replicate 2: 2.27e6; outcome: inactive

How did the screen score spab (GeneID 35901) [DRSC07112]?
firefly reporter light, replicate 1: 3.37e5; firefly reporter light, replicate 2: 2.27e5; Renilla control light, replicate 1: 2.38e6; Renilla control light, replicate 2: 2.01e6; outcome: inactive

Which result is listed for CG15126 (GeneID 50202) [DRSC06548]?
firefly reporter light, replicate 1: 1.19e5; firefly reporter light, replicate 2: 1.95e5; Renilla control light, replicate 1: 2.41e6; Renilla control light, replicate 2: 1.44e6; outcome: inactive

With Fgop2 (GeneID 33971) [DRSC02016], how do the results read?
firefly reporter light, replicate 1: 3.57e5; firefly reporter light, replicate 2: 5.93e5; Renilla control light, replicate 1: 1.60e6; Renilla control light, replicate 2: 1.73e6; outcome: inactive

With CG31013 (GeneID 326111) [DRSC16542], what was measured?
firefly reporter light, replicate 1: 2.04e5; firefly reporter light, replicate 2: 2.59e5; Renilla control light, replicate 1: 2.03e6; Renilla control light, replicate 2: 2.77e6; outcome: inactive

What is on record for mRpS35 (GeneID 38345) [DRSC08551]?
firefly reporter light, replicate 1: 55568; firefly reporter light, replicate 2: 88565; Renilla control light, replicate 1: 6.13e5; Renilla control light, replicate 2: 8.54e5; outcome: inactive

With jeb (GeneID 36295) [DRSC06305], how do the results read?
firefly reporter light, replicate 1: 1.81e5; firefly reporter light, replicate 2: 1.60e5; Renilla control light, replicate 1: 9.82e5; Renilla control light, replicate 2: 1.28e6; outcome: inactive

What did the screen give for jeb (GeneID 36295) [DRSC06307]?
firefly reporter light, replicate 1: 3.30e5; firefly reporter light, replicate 2: 2.36e5; Renilla control light, replicate 1: 1.59e6; Renilla control light, replicate 2: 1.65e6; outcome: inactive

For jeb (GeneID 36295) [DRSC26882], how do the results read?
firefly reporter light, replicate 1: 3.09e5; firefly reporter light, replicate 2: 2.35e5; Renilla control light, replicate 1: 8.09e5; Renilla control light, replicate 2: 5.85e5; outcome: inactive

What did the screen give for Ir56a (GeneID 246471) [DRSC05776]?
firefly reporter light, replicate 1: 2.31e5; firefly reporter light, replicate 2: 2.21e5; Renilla control light, replicate 1: 4.54e5; Renilla control light, replicate 2: 1.23e5; outcome: inactive

What did the screen give for Ir56a (GeneID 246471) [DRSC28590]?
firefly reporter light, replicate 1: 3.31e5; firefly reporter light, replicate 2: 4.76e5; Renilla control light, replicate 1: 1.56e6; Renilla control light, replicate 2: 1.20e6; outcome: inactive
